According to article PMC4332150:
No constants are given. Whether binding was seen depends on the method and setting. In cells and extracts the contact can be indirect. Here binding means that the protein was enriched with, or labelled near, the bait; the list need not be complete. For part of these data: Where a sequence is shown, tags or fusion partners need not be part of it. Blank lines part the entries; values can stand above or below the binder they belong to.

Sequences of proteins named here, by UniProt entry; tags and fusion partners are left off.
UniProt P19838: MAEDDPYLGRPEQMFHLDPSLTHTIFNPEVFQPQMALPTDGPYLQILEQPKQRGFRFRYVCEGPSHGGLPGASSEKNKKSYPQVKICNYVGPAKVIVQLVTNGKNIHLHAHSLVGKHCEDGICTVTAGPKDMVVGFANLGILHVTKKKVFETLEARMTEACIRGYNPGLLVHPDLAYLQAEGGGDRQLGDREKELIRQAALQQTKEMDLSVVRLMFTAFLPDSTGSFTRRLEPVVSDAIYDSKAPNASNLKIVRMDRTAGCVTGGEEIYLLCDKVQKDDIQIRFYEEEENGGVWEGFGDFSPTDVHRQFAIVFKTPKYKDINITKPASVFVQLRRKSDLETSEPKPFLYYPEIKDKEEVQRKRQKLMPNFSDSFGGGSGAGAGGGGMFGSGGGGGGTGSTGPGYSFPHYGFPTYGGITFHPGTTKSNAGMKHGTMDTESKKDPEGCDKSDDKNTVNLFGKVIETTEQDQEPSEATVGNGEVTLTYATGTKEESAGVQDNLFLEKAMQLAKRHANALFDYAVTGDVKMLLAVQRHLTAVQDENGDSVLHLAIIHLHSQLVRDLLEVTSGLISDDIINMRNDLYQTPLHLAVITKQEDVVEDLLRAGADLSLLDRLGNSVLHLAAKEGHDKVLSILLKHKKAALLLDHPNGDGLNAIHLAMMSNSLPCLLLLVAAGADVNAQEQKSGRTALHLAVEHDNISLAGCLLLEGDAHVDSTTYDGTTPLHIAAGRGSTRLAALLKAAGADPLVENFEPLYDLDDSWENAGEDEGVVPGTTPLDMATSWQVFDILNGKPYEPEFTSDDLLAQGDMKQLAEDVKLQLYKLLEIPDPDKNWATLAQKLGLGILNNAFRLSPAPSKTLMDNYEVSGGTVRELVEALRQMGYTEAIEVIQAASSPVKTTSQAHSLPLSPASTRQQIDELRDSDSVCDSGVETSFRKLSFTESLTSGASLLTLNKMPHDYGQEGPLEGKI

Tests used:
[1] = target: SFB-tagged RBPJ (human), Q06330; assay: affinity purification with mass spectrometry; TAP (streptavidin beads, biotin elution, S-protein beads; NETN buffer) of C-terminally SFB-tagged bait from HEK293T; chromatin fraction (pellet after NETN lysis, digested with TurboNuclease); forward and reciprocal purifications; some baits also after drug treatment; conditions: remark: other sources report otherwise
[2] = target: SFB-tagged RBPJ (human), Q06330; assay: affinity purification with mass spectrometry; TAP (streptavidin beads, biotin elution, S-protein beads; NETN buffer) of C-terminally SFB-tagged bait from HEK293T; soluble fraction (supernatant of the NETN lysate); forward and reciprocal purifications; conditions: remark: other sources report otherwise
SFB-tagged FOXN2 (human) = target: T1, SFB-tagged FOXN2 (human) (UniProt P32314); assay: affinity purification with mass spectrometry; TAP (streptavidin beads, biotin elution, S-protein beads; NETN buffer) of C-terminally SFB-tagged bait from HEK293T; chromatin fraction (pellet after NETN lysis, digested with TurboNuclease); forward and reciprocal purifications; some baits also after drug treatment
T1 sequence: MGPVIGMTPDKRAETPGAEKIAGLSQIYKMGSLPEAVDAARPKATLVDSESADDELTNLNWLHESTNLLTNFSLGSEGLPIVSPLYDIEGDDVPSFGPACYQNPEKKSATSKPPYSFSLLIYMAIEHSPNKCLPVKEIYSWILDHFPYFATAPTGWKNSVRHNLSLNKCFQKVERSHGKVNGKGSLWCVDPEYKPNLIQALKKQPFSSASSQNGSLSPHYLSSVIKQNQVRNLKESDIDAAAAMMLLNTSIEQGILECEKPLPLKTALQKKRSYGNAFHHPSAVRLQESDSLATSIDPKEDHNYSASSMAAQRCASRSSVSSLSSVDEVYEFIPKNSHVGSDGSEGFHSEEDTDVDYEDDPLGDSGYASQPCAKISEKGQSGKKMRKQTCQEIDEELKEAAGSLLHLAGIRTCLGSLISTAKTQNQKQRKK

[3] = target: T2, JUN (endogenous) (human (endogenous in HEK293T)), P05412; assay: affinity purification with mass spectrometry; AP/MS with antibodies against endogenous JUN; chromatin fraction; conditions: remark: other sources report otherwise
T2 chain: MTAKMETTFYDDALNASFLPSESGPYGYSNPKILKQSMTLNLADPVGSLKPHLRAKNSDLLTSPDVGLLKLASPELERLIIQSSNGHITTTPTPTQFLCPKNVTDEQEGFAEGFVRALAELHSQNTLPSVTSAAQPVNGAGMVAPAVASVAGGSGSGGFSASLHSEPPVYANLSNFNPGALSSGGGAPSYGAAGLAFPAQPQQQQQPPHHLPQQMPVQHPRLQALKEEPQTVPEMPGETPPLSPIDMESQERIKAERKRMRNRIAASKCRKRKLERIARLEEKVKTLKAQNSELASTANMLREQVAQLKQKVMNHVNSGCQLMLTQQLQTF

[4] = target: T2, JUN (endogenous) (human (endogenous in …)); assay: affinity purification with mass spectrometry; AP/MS with antibodies against endogenous JUN; soluble fraction; conditions: remark: other sources report otherwise
[5] = target: SFB-tagged NF-κB1 (human) (UniProt P19838); assay: affinity purification with mass spectrometry; same TAP/MS of SFB-tagged bait from HEK293T; the fraction in which the hit was found is not given

binding [1]: binds
binding [2]: binds
B1: FBXO42 (endogenous), Q6P3S6 1-717 (protein)
chain: MASSSDSEDDSFMAVDQEETVLEGTMDQDEEPHPVLEAEETRHNRSMSELPEEVLEYILSFLSPYQEHKTAALVCKQWYRLIKGVAHQCYHGFMKAVQEGNIQWESRTYPYPGTPITQRFSHSACYYDANQSMYVFGGCTQSSCNAAFNDLWRLDLNSKEWIRPLASGSYPSPKAGATLVVYKDLLVLFGGWTRPSPYPLHQPERFFDEIHTYSPSKNWWNCIVTTHGPPPMAGHSSCVIDDKMIVFGGSLGSRQMSNDVWVLDLEQWAWSKPNISGPSPHPRGGQSQIVIDDATILILGGCGGPNALFKDAWLLHMHSGPWAWQPLKVENEEHGAPELWCHPACRVGQCVVVFSQAPSGRAPLSPSLNSRPSPISATPPALVPETREYRSQSPVRSMDEAPCVNGRWGTLRPRAQRQTPSGSREGSLSPARGDGSPILNGGSLSPGTAAVGGSSLDSPVQAISPSTPSAPEGYDLKIGLSLAPRRGSLPDQKDLRLGSIDLNWDLKPASSSNPMDGMDNRTVGGSMRHPPEQTNGVHTPPHVASALAGAVSPGALRRSLEAIKAMSSKGPSASAALSPPLGSSPGSPGSQSLSSGETVPIPRPGPAQGDGHSLPPIARRLGHHPPQSLNVGKPLYQSMNCKPMQMYVLDIKDTKEKGRVKWKVFNSSSVVGPPETSLHTVVQGRGELIIFGGLMDKKQNVKYYPKTNALYFVRAKR

binding (SFB-tagged FOXN2 (human)): binds
B2: RFX1 (endogenous) (protein, UniProt P22670 1-979)
chain: MATQAYTELQAAPPPSQPPQAPPQAQPQPPPPPPPAAPQPPQPPTAAATPQPQYVTELQSPQPQAQPPGGQKQYVTELPAVPAPSQPTGAPTPSPAPQQYIVVTVSEGAMRASETVSEASPGSTASQTGVPTQVVQQVQGTQQRLLVQTSVQAKPGHVSPLQLTNIQVPQQALPTQRLVVQSAAPGSKGGQVSLTVHGTQQVHSPPEQSPVQANSSSSKTAGAPTGTVPQQLQVHGVQQSVPVTQERSVVQATPQAPKPGPVQPLTVQGLQPVHVAQEVQQLQQVPVPHVYSSQVQYVEGGDASYTASAIRSSTYSYPETPLYTQTASTSYYEAAGTATQVSTPATSQAVASSGSMPMYVSGSQVVASSTSTGAGASNSSGGGGSGGGGGGGGGGGGGGSGSTGGGGSGAGTYVIQGGYMLGSASQSYSHTTRASPATVQWLLDNYETAEGVSLPRSTLYCHYLLHCQEQKLEPVNAASFGKLIRSVFMGLRTRRLGTRGNSKYHYYGLRIKASSPLLRLMEDQQHMAMRGQPFSQKQRLKPIQKMEGMTNGVAVGQQPSTGLSDISAQVQQYQQFLDASRSLPDFTELDLQGKVLPEGVGPGDIKAFQVLYREHCEAIVDVMVNLQFTLVETLWKTFWRYNLSQPSEAPPLAVHDEAEKRLPKAILVLLSKFEPVLQWTKHCDNVLYQGLVEILIPDVLRPIPSALTQAIRNFAKSLESWLTHAMVNIPEEMLRVKVAAAGAFAQTLRRYTSLNHLAQAARAVLQNTAQINQMLSDLNRVDFANVQEQASWVCRCEDRVVQRLEQDFKVTLQQQNSLEQWAAWLDGVVSQVLKPYQGSAGFPKAAKLFLLKWSFYSSMVIRDLTLRSAASFGSFHLIRLLYDEYMYYLIEHRVAQAKGETPIAVMGEFANLATSLNPLDPDKDEEEEEEEESEDELPQDISLAAGGESPALGPETLEPPAKLARTDARGLFVQALPSS

binding [3]: binds
binding [4]: binds
B3: ATF2 (endogenous), P15336 1-505 (protein)
chain: MKFKLHVNSARQYKDLWNMSDDKPFLCTAPGCGQRFTNEDHLAVHKHKHEMTLKFGPARNDSVIVADQTPTPTRFLKNCEEVGLFNELASPFENEFKKASEDDIKKMPLDLSPLATPIIRSKIEEPSVVETTHQDSPLPHPESTTSDEKEVPLAQTAQPTSAIVRPASLQVPNVLLTSSDSSVIIQQAVPSPTSSTVITQAPSSNRPIVPVPGPFPLLLHLPNGQTMPVAIPASITSSNVHVPAAVPLVRPVTMVPSVPGIPGPSSPQPVQSEAKMRLKAALTQQHPPVTNGDTVKGHGSGLVRTQSEESRPQSLQQPATSTTETPASPAHTTPQTQSTSGRRRRAANEDPDEKRRKFLERNRAAASRCRQKRKVWVQSLEKKAEDLSSLNGQLQSEVTLLRNEVAQLKQLLLAHKDCPVTAMQKKSGYHTADKDDSSEDISVPSSPHTEAIQHSSVSTSNGVSSTSKAEAVATSVLTQMADQSTEPALSQIVMAPSSQSQPSGS

binding [5]: binds
B4: RELB (endogenous) (protein, UniProt Q01201 1-579)
chain: MLRSGPASGPSVPTGRAMPSRRVARPPAAPELGALGSPDLSSLSLAVSRSTDELEIIDEYIKENGFGLDGGQPGPGEGLPRLVSRGAASLSTVTLGPVAPPATPPPWGCPLGRLVSPAPGPGPQPHLVITEQPKQRGMRFRYECEGRSAGSILGESSTEASKTLPAIELRDCGGLREVEVTACLVWKDWPHRVHPHSLVGKDCTDGICRVRLRPHVSPRHSFNNLGIQCVRKKEIEAAIERKIQLGIDPYNAGSLKNHQEVDMNVVRICFQASYRDQQGQMRRMDPVLSEPVYDKKSTNTSELRICRINKESGPCTGGEELYLLCDKVQKEDISVVFSRASWEGRADFSQADVHRQIAIVFKTPPYEDLEIVEPVTVNVFLQRLTDGVCSEPLPFTYLPRDHDSYGVDKKRKRGMPDVLGELNSSDPHGIESKRRKKKPAILDHFLPNHGSGPFLPPSALLPDPDFFSGTVSLPGLEPPGGPDLLDDGFAYDPTAPTLFTMLDLLPPAPPHASAVVCSGGAGAVVGETPGPEPLTLDSYQAPGPGDGGTASLVGSNMFPNHYREAAFGGGLLSPGPEAT
